The source of these data is article PMC11116412.

The target in this assay is Zonula occludens-1 (bovine (endogenous in BAECs)). Nature of the assay: co-IP; endogenous proteins immunoprecipitated (1 µg antibody, 1 mg protein, overnight, protein A sepharose) from BAEC lysates, lysis buffer with 75 mM NaCl; immunoblot; non-immune IgG as control; cells treated or not with VEGF (40 ng/ml, 10 min), arsenite (500 µM, 30 min), MG132 or siZO-1. (In western blotting, separated proteins are transferred to a membrane and probed.)

These are yes or no findings as the source states them, for the method shown. Binding seen in cells or lysates may run through a third protein. Binding can be weak; no strength is given.

B1: junction plakoglobin (protein, UniProt Q8SPJ1 1-745)
chain: MEVMNLIEQPIKVTEWQQTYTYDSGIHSGANTCVPSLSSKGLIEEDEACGRQYTLKKTTTYTQSVPPGQGDLEYQMSTTARAKRVREAMCPGVTGEDSSLLLTTQVEGQTTNLQRLAEPSQLLKSAIVHLINYQDDAELATRALPELTKLLNDEDPVVVTKAAMIVNQLSKKEASRRALMGSPQLVAAVVRTMQNTSDLDTARCTTSILHNLSHHREGLLAIFKSGGIPALVRMLSSPVESVLFYAITTLHNLLLYQEGAKMAVRLADGLQKMVPLLNKNNPKFLAITTDCLQLLAYGNQESKLIILANGGPQALVQIMRNYSYEKLLWTTSRVLKVLSVCPSNKPAIVEAGGMQALGKHLTSNSPRLVQNCLWTLRNLSDVATKQEGLESVLKILVNQLSVDDVNVLTCATGTLSNLTCNNSKNKTLVTQNSGVEALIHAILRAGDKDDITEPAVCALRHLTSRHPEAEMAQNSVRLNYGIPAIVKLLNQPNQWPLVKATIGLIRNLALCPANHAPLQEAAVIPRLVQLLVKAHQDAQRHVAAGTQQPYTDGVRMEEIVEGCTGALHILARDPMNRMEIFRLNTIPLFVQLLYSSVENIQRVAAGVLCELAQDKEAADAIDAEGASAPLMELLHSRNEGTATYAAAVLFRISEDKNPDYRKRVSVELTNSLFKHDPAAWEAAQSMIPMNEPYADDMDATYRPMYSSDVPMDPLEMHMDMDGDYPIDTYSDGLRPPYATADHMLA
B1: the binding result was “binds”.
